Measurements published in patent US20230054407A1, “OPTICAL BIOPSY STAIN PANELS AND METHODS OF USE” (ARIZONA BOARD OF REGENTS ON BEHALF OF THE UNIVERSITY OF …, priority 2020, published 2023).
At least one compound was matched to its structure with a doubt left.

How the values were obtained:
bovine lung tissue = assay: Topical drug-dye staining of ex vivo bovine lung tissue imaged with confocal microscopy; conditions: for staining pattern: single dye applied topically to ex vivo bovine lung tissue, confocal microscopy
Description: Image field is 635.5 μm tall×wide. Inset is the structure of Proflavine.
Image field is 635.5 μm tall×wide. […]
Imaging was with confocal microscopy, with a bovine lung sample thickness of 10 μm, and an image field of 635.5 μm^2.
Imaging was with confocal microscopy settings at 488 nm excitation after topical application to the bovine lung specimen. Image field is 635.5 μm^2 at 10 μm thickness.
The dyes were pipetted in situ upon bovine tissue ex vivo and examined under confocal microscopy with a 488 nm laser with 10 μm optical thickness and imaged fields being 635.5 μm^2.
Referring to FIG. 1, 50 μl at 20 μM of Proflavine was topically applied directly to ex vivo bovine lung tissue in situ and imaged immediately with confocal microscopy. […] Likewise, Fluorescein, Phenol Red, Phloxine B, and Rose Bengal were each added to ex vivo bovine lung tissue and imaged under confocal microscopy (see FIGS. 2A-2I). […] This combination was then added topically to bovine lung tissue and imaged using confocal microscopy (FIG. 3). […]

[1] = In vitro fluorescence emission spectra and compatibility of nucleic acid and protein/cytoplasm dyes; type: physicochemical
Procedure: Additional incompatibility results from overlapping of the component peak emissions.
Daunorubicin (1 μM), Fluorescein (1 nM) and the combination of the two were excited at 375 nm, with resultant fluorescence emission.
With 405 nm excitation, Proflavine at 0.25 μM, Rose Bengal at 10 μM, and the combination result in roughly the same order of magnitude peaks resulting from their respective fluorescence.
FIGS. 8A-8F show emission spectra of various drug dye candidates. FIGS. 8A-8D show Mitoxantrone as a Hematoxylin-alternative candidate at 10 μM, with Phloxine B at 0.1 μM as an Eosin-alternative candidate drug-dye, and a combination of the two excited at different wavelengths: (FIG. 8A) 375 nm, (FIG. 8B) 405 nm, (FIG. 80) 455 nm, and (FIG. 8D) 488 nm. […] Additionally, there was overlap of emission spectra (FIG. 9) and the combination of certain DNA and protein dyes decreased the emission intensity relative to the same concentration of the component dye alone (FIG. 9 and FIG. 10).
The stain panels listed below use a combination of nucleus dyes and protein/cytoplasm dyes that have been optimized for their compatibility.

SMILES	localization of drug-dye (bovine lung tissue; ex vivo bovine lung tissue, qualitatively at the concentrations of FIGS. 2A-2D)	staining pattern (bovine lung tissue)	Approximate peak fluorescence [1] [nm]	overlap with the fluorescence signal from Daunorubicin as DNA-dye ([1]; protein/cytoplasm dye versus Daunorubicin)
O=C1OC2(c3ccc(O)cc3Oc3cc(O)ccc32)c2ccccc21 [Fluorescein]	appeared to localize to cell cytoplasm in addition to the connective tissue fibers	variable staining of the proteinaceous connective tissue and cellular cytoplasm, granules or vesicles	~505	without excessive overlap
O=S1(=O)OC(c2ccc(O)cc2)(c2ccc(O)cc2)c2ccccc21 [Phenol Red]	–	variable staining of the proteinaceous connective tissue and cellular cytoplasm, granules or vesicles	~535	–
